Measured data: PubChem BioAssay AID652243 (Drosophila RNAi Screening Center, 2013)
The screen tested about 24,000 reagents; below is an unselected part of those that have a named target and a result. In the full data, 246 (1%) are marked active. 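Plates not normalised; calls are printed but the firefly/Renilla ratio behind them is not deposited; fold cut for lowering reported inconsistently.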 Raw values are not corrected between plates. Names joined by + are all predicted targets of the reagent. No sequences are given here. The record does not give: the amount of reagent.

Assay: 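Fly genes required for human androgen receptor driven transcription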 (primary screen)
Cell system: Drosophila S2R+ cells
Reagents: long dsRNA against Drosophila genes
Timing: 72 h (48 h, then 24 h hormone)
Challenge: synthetic androgen R1881 at 10 nM for 24 h
Measured: 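Per-well raw luminescence of the androgen-driven firefly reporter and of the Renilla control, two replicates each, without normalisation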
Scale: firefly reporter light: higher = more light from androgen-responsive reporter; Renilla control light: higher = more constitutive control signal (cell number, transfection)
Active means: 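Hit when the log firefly-to-Renilla ratio dropped or increased by a fixed fold versus the mean of GFP or LacZ controls across duplicate plates; lowering cut given as 1.5 and as 3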
Calls: active = hit: reporter lowered or raised; inactive = no hit

The opening 3 entries, ahead of the listing:
target gene	dsRNA	firefly reporter light, replicate 1	firefly reporter light, replicate 2	Renilla control light, replicate 1	Renilla control light, replicate 2	Call
CG1387	DRSC17904	1.56e5	60364	5.32e5	5.55e5	inactive
CG17169	DRSC20905	1.09e5	1.43e5	3.67e5	3.54e5	inactive
Cf2 + CG3008	DRSC36836					inactive

Main list, from the start:
target gene	dsRNA	firefly reporter light, replicate 1	firefly reporter light, replicate 2	Renilla control light, replicate 1	Renilla control light, replicate 2	Call
CG1387	DRSC17904	1.56e5	60364	5.32e5	5.55e5	inactive
CG17169	DRSC20905	1.09e5	1.43e5	3.67e5	3.54e5	inactive
Cf2 + CG3008	DRSC36836					inactive
Lsp1gamma	DRSC08672	9.34e5	1.22e6	1.16e6	1.09e6	inactive
Lsp1gamma	DRSC25710	4.34e5	3.70e5	4.39e5	2.62e5	inactive
IntS3	DRSC21215	1.40e5	1.08e5	2.92e5	3.91e5	inactive
Ac3	DRSC03692	5.91e5	3.31e5	1.58e6	1.10e6	inactive
CR42546	DRSC03711	3.14e5	2.88e5	1.81e6	1.16e6	inactive
Mco1	DRSC02720	1.44e5	2.31e5	1.83e6	2.34e6	inactive
CkIIalpha-i1	DRSC11115	3.22e5	2.21e5	2.52e6	1.81e6	inactive
insv	DRSC00579	1.37e5	1.11e5	7.59e5	1.09e6	inactive
insv	DRSC28219	5.25e5	7.34e5	1.12e6	1.70e6	inactive
gd	DRSC20336	4.10e5	4.21e5	2.75e6	3.15e6	inactive
Cyp6u1	DRSC05015	6.57e5	9.58e5	1.44e6	1.95e6	inactive
Cyp6u1	DRSC26528	2.65e5	2.23e5	6.81e5	6.35e5	inactive
Cpr5C	DRSC18340	3.71e5	3.43e5	2.60e6	2.46e6	inactive
CG13578	DRSC04214	2.22e5	1.64e5	1.71e6	1.53e6	inactive
CG30002	DRSC05182	3.69e5	3.89e5	4.67e5	4.51e5	inactive
CG30002	DRSC24738	4.72e5	5.33e5	5.19e5	6.51e5	inactive
mRpS23	DRSC01348	2.68e5	3.97e5	6.55e5	6.06e5	inactive
Ugalt	DRSC18467	1.43e5	2.58e5	2.49e6	2.79e6	inactive
Gr39a	DRSC01841	2.15e5	2.38e5	7.43e5	3.58e5	inactive
Gr39a	DRSC01842	1.58e5	1.16e5	4.63e5	4.08e5	inactive
Gr39a	DRSC27181	2.24e5	3.04e5	6.57e5	5.84e5	inactive
CG10147	DRSC09706	1.60e5	1.84e5	1.61e6	2.94e6	inactive
CG10147	DRSC29564	4.45e5	5.81e5	6.42e5	6.42e5	inactive
CG8321	DRSC07148	1.09e6	1.04e6	1.95e6	1.28e6	inactive
apn	DRSC15124	1.41e5	1.19e5	2.02e6	1.95e6	inactive
TwdlT	DRSC21540	6.31e5	6.25e5	2.26e6	1.91e6	inactive
mtsh	DRSC03070	1.74e5	1.90e5	1.33e6	1.11e6	inactive
Sap47	DRSC16850	1.48e5	48609	5.06e5	5.05e5	inactive
Sap47	DRSC27162	2.08e5	1.87e5	4.14e5	5.01e5	inactive
CG14634	DRSC17944	4.50e5	3.41e5	3.29e6	2.60e6	inactive
CG34269	DRSC38855	1.13e6	1.02e6	1.86e6	1.81e6	inactive
KCNQ	DRSC06121	1.88e5	1.06e5	1.64e6	1.05e6	active
KCNQ	DRSC06230	3.05e5	1.54e5	1.99e6	1.63e6	inactive
KCNQ	DRSC25242	3.86e5	4.06e5	3.19e5	3.41e5	inactive
CG10286	DRSC12520	58932	23098	2.48e5	2.70e5	inactive
beat-Va	DRSC14192	2.73e5	2.26e5	2.27e6	2.08e6	inactive
CG9184	DRSC08636	4.78e5	4.88e5	2.54e6	2.69e6	inactive
CG9184	DRSC22184	1.21e6	8.66e5	2.08e6	1.49e6	inactive
CG9184	DRSC23765	8.33e5	6.35e5	8.39e5	9.84e5	inactive
CG12682	DRSC17873	2.23e5	2.66e5	1.89e6	1.99e6	inactive
CG33521	DRSC17211	3.65e5	3.24e5	3.37e6	1.77e6	inactive
CG33521	DRSC22919	4.19e5	8.00e5	9.54e5	2.22e6	inactive
CG33521	DRSC29186	6.37e5	4.91e5	1.16e6	1.29e6	inactive
ppk7	DRSC03236	2.08e5	1.19e5	1.63e6	1.17e6	inactive
Nsun5	DRSC15835	77642	70064	7.72e5	6.88e5	inactive
Rtnl2	DRSC12609	1.00e5	1.02e5	1.52e6	1.36e6	inactive
Rtnl2	DRSC21655	7.12e5	6.25e5	2.87e6	2.39e6	inactive
Rtnl2	DRSC26022	3.60e5	2.97e5	8.72e5	5.77e5	inactive
cher	DRSC16924	1.12e5	1.23e5	9.06e5	8.32e5	inactive
cher	DRSC27625	2.61e5	2.52e5	3.57e5	6.23e5	inactive
dco	DRSC16929	1.15e5	1.03e5	6.51e5	5.55e5	inactive
dco	DRSC29211	7.95e5	5.33e5	1.06e6	9.85e5	inactive
dco	DRSC36998					inactive
ovo	DRSC18050	70940	55426	4.62e5	5.72e5	inactive
ovo	DRSC25801	2.87e5	3.03e5	7.83e5	6.37e5	inactive
